The source of these data is PMC5421940.

These are yes or no findings as the source states them, for the method shown. In cells and extracts the contact can be indirect. A result given as binding can be weak or reduced; the word gives no strength. Tags and fused reporters may be left off the sequences shown.

The target in assay [1] is GFP-MCPyV tAg (Merkel cell polyomavirus small T antigen, wild type) (Merkel cell polyomavirus). The assay is described as follows: co-IP.
The target in assay [2] is GST-tAg (bacterially expressed MCPyV small T antigen) (Merkel cell polyomavirus). The assay is described as follows: pull-down; bacterially expressed GST fusion on glutathione-agarose beads, incubated 3 hours in lysis buffer with one ITT produced protein alone, western blot; only the target purified.
Assay [3] addresses GFP-MCPyV tAg N100A (Merkel cell polyomavirus). The assay is described as follows: co-IP.

B1: endogenous PP4R1 (MCC13 cells) (protein, UniProt Q8TF05 1-950)
chain: MADLSLLQEDLQEDADGFGVDDYSSESDVIIIPSALDFVSQDEMLTPLGRLDKYAASENIFNRQMVARSLLDTLREVCDDERDCIAVLERISRLADDSEPTVRAELMEQVPHIALFCQENRPSIPYAFSKFLLPIVVRYLADQNNQVRKTSQAALLALLEQELIERFDVETKVCPVLIELTAPDSNDDVKTEAVAIMCKMAPMVGKDITERLILPRFCEMCCDCRMFHVRKVCAANFGDICSVVGQQATEEMLLPRFFQLCSDNVWGVRKACAECFMAVSCATCQEIRRTKLSALFINLISDPSRWVRQAAFQSLGPFISTFANPSSSGQYFKEESKSSEEMSVENKNRTRDQEAPEDVQVRPEDTPSDLSVSNSSVILENTMEDHAAEASGKPLGEISVPLDSSLLCTLSSESHQEAASNENDKKPGNYKSMLRPEVGTTSQDSALLDQELYNSFHFWRTPLPEIDLDIELEQNSGGKPSPEGPEEESEGPVPSSPNITMATRKELEEMIENLEPHIDDPDVKAQVEVLSAALRASSLDAHEETISIEKRSDLQDELDINELPNCKINQEDSVPLISDAVENMDSTLHYIHSDSDLSNNSSFSPDEERRTKVQDVVPQALLDQYLSMTDPSRAQTVDTEIAKHCAYSLPGVALTLGRQNWHCLRETYETLASDMQWKVRRTLAFSIHELAVILGDQLTAADLVPIFNGFLKDLDEVRIGVLKHLHDFLKLLHIDKRREYLYQLQEFLVTDNSRNWRFRAELAEQLILLLELYSPRDVYDYLRPIALNLCADKVSSVRWISYKLVSEMVKKLHAATPPTFGVDLINELVENFGRCPKWSGRQAFVFVCQTVIEDDCLPMDQFAVHLMPHLLTLANDRVPNVRVLLAKTLRQTLLEKDYFLASASCHQEAVEQTIMALQMDRDSDVKYFASIHPASTKISEDAMSTASSTY
Take B1: the binding result in assay [1] is “binds”.

B2: HA-PP4R1 (expressed in cells) (protein, UniProt Q8TF05 1-950)
chain: MADLSLLQEDLQEDADGFGVDDYSSESDVIIIPSALDFVSQDEMLTPLGRLDKYAASENIFNRQMVARSLLDTLREVCDDERDCIAVLERISRLADDSEPTVRAELMEQVPHIALFCQENRPSIPYAFSKFLLPIVVRYLADQNNQVRKTSQAALLALLEQELIERFDVETKVCPVLIELTAPDSNDDVKTEAVAIMCKMAPMVGKDITERLILPRFCEMCCDCRMFHVRKVCAANFGDICSVVGQQATEEMLLPRFFQLCSDNVWGVRKACAECFMAVSCATCQEIRRTKLSALFINLISDPSRWVRQAAFQSLGPFISTFANPSSSGQYFKEESKSSEEMSVENKNRTRDQEAPEDVQVRPEDTPSDLSVSNSSVILENTMEDHAAEASGKPLGEISVPLDSSLLCTLSSESHQEAASNENDKKPGNYKSMLRPEVGTTSQDSALLDQELYNSFHFWRTPLPEIDLDIELEQNSGGKPSPEGPEEESEGPVPSSPNITMATRKELEEMIENLEPHIDDPDVKAQVEVLSAALRASSLDAHEETISIEKRSDLQDELDINELPNCKINQEDSVPLISDAVENMDSTLHYIHSDSDLSNNSSFSPDEERRTKVQDVVPQALLDQYLSMTDPSRAQTVDTEIAKHCAYSLPGVALTLGRQNWHCLRETYETLASDMQWKVRRTLAFSIHELAVILGDQLTAADLVPIFNGFLKDLDEVRIGVLKHLHDFLKLLHIDKRREYLYQLQEFLVTDNSRNWRFRAELAEQLILLLELYSPRDVYDYLRPIALNLCADKVSSVRWISYKLVSEMVKKLHAATPPTFGVDLINELVENFGRCPKWSGRQAFVFVCQTVIEDDCLPMDQFAVHLMPHLLTLANDRVPNVRVLLAKTLRQTLLEKDYFLASASCHQEAVEQTIMALQMDRDSDVKYFASIHPASTKISEDAMSTASSTY
B2: the binding result in assay [1] is listed as “binds”.

B3: HA-PP4R1, ITT produced (protein, UniProt Q8TF05 1-950)
chain: MADLSLLQEDLQEDADGFGVDDYSSESDVIIIPSALDFVSQDEMLTPLGRLDKYAASENIFNRQMVARSLLDTLREVCDDERDCIAVLERISRLADDSEPTVRAELMEQVPHIALFCQENRPSIPYAFSKFLLPIVVRYLADQNNQVRKTSQAALLALLEQELIERFDVETKVCPVLIELTAPDSNDDVKTEAVAIMCKMAPMVGKDITERLILPRFCEMCCDCRMFHVRKVCAANFGDICSVVGQQATEEMLLPRFFQLCSDNVWGVRKACAECFMAVSCATCQEIRRTKLSALFINLISDPSRWVRQAAFQSLGPFISTFANPSSSGQYFKEESKSSEEMSVENKNRTRDQEAPEDVQVRPEDTPSDLSVSNSSVILENTMEDHAAEASGKPLGEISVPLDSSLLCTLSSESHQEAASNENDKKPGNYKSMLRPEVGTTSQDSALLDQELYNSFHFWRTPLPEIDLDIELEQNSGGKPSPEGPEEESEGPVPSSPNITMATRKELEEMIENLEPHIDDPDVKAQVEVLSAALRASSLDAHEETISIEKRSDLQDELDINELPNCKINQEDSVPLISDAVENMDSTLHYIHSDSDLSNNSSFSPDEERRTKVQDVVPQALLDQYLSMTDPSRAQTVDTEIAKHCAYSLPGVALTLGRQNWHCLRETYETLASDMQWKVRRTLAFSIHELAVILGDQLTAADLVPIFNGFLKDLDEVRIGVLKHLHDFLKLLHIDKRREYLYQLQEFLVTDNSRNWRFRAELAEQLILLLELYSPRDVYDYLRPIALNLCADKVSSVRWISYKLVSEMVKKLHAATPPTFGVDLINELVENFGRCPKWSGRQAFVFVCQTVIEDDCLPMDQFAVHLMPHLLTLANDRVPNVRVLLAKTLRQTLLEKDYFLASASCHQEAVEQTIMALQMDRDSDVKYFASIHPASTKISEDAMSTASSTY
Consider B3, for which the binding result in assay [2] is on record as “binds”.

B4: FLAG-PP4c (expressed in cells) (enzyme, UniProt P60510 1-307)
chain: MAEISDLDRQIEQLRRCELIKESEVKALCAKAREILVEESNVQRVDSPVTVCGDIHGQFYDLKELFRVGGDVPETNYLFMGDFVDRGFYSVETFLLLLALKVRYPDRITLIRGNHESRQITQVYGFYDECLRKYGSVTVWRYCTEIFDYLSLSAIIDGKIFCVHGGLSPSIQTLDQIRTIDRKQEVPHDGPMCDLLWSDPEDTTGWGVSPRGAGYLFGSDVVAQFNAANDIDMICRAHQLVMEGYKWHFNETVLTVWSAPNYCYRCGNVAAILELDEHLQKDFIIFEAAPQETRGIPSKKPVADYFL
On to B4, for which the binding entry in assay [1] and in assay [3] was “binds” in each case.

B5: FLAG-tagged PP4c, ITT produced (enzyme, UniProt P60510 1-307)
chain: MAEISDLDRQIEQLRRCELIKESEVKALCAKAREILVEESNVQRVDSPVTVCGDIHGQFYDLKELFRVGGDVPETNYLFMGDFVDRGFYSVETFLLLLALKVRYPDRITLIRGNHESRQITQVYGFYDECLRKYGSVTVWRYCTEIFDYLSLSAIIDGKIFCVHGGLSPSIQTLDQIRTIDRKQEVPHDGPMCDLLWSDPEDTTGWGVSPRGAGYLFGSDVVAQFNAANDIDMICRAHQLVMEGYKWHFNETVLTVWSAPNYCYRCGNVAAILELDEHLQKDFIIFEAAPQETRGIPSKKPVADYFL
Regarding B5, the binding result in assay [2] is “binds”.

B6: endogenous PP4c (MCC13 cells) (enzyme, UniProt P60510 1-307)
chain: MAEISDLDRQIEQLRRCELIKESEVKALCAKAREILVEESNVQRVDSPVTVCGDIHGQFYDLKELFRVGGDVPETNYLFMGDFVDRGFYSVETFLLLLALKVRYPDRITLIRGNHESRQITQVYGFYDECLRKYGSVTVWRYCTEIFDYLSLSAIIDGKIFCVHGGLSPSIQTLDQIRTIDRKQEVPHDGPMCDLLWSDPEDTTGWGVSPRGAGYLFGSDVVAQFNAANDIDMICRAHQLVMEGYKWHFNETVLTVWSAPNYCYRCGNVAAILELDEHLQKDFIIFEAAPQETRGIPSKKPVADYFL
B6: the binding entry in assay [1] is “binds”.
